Experimental data: the supplement of paper PMC12009310
Structures can show the parent of a compound that is named as a salt. ± gives the standard deviation of the averaged measurements. This is one part of the list. Plates or batches differ in their baseline, so values are only roughly comparable.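 The cells are a mouse kidney inner medullary collecting duct line, silenced either for the ciliary gene Rpgrip1l or with a non-targeting control siRNA.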

System: mIMCD3
Experiment: robust z score of cilia incidence (% cells with single cilium) vs plate controls; higher = more ciliated cells
Details: 10 µM; 48 h; siRNA: siScr

Structure (SMILES)	robust z score of cilia incidence
COc1cc(C(=O)OCCCN2CCCN(CCCOC(=O)c3cc(OC)c(OC)c(OC)c3)CC2)cc(OC)c1OC [Dilazep dihydrochloride]	-24.2 ± 6.1
Cc1c(C(=O)NC2CCCCC2)sc2nc3ccc(N)cc3n12	-19 ± 19
OCCNCCCOc1cccc(Cl)c1Cl [2,3-DCPE hydrochloride]	-5.76 ± 2.4
c1ccc(-c2n[nH]c3c2oc2ccccc23)cc1	1.01 ± 8.2
NC(=O)OCC(COC(N)=O)c1ccccc1 [Felbamate]	-0.404 ± 3.6
CCc1nn(CCCN2CCN(c3cccc(Cl)c3)CC2)c(=O)n1CCOc1ccccc1 [Nefazodone hydrochloride]	-12.2 ± 4.9
CC(C)(CO)Cc1cc(C(C)(C)C)c(O)c(C(C)(C)C)c1	-1.98 ± 0.032
NC(N)=Nc1ccc(Cl)cc1 [4-Chlorophenylguanidine hydrochloride]	0.945 ± 1.2
Nc1ncnc2c1nc(Br)n2[C@@H]1O[C@@H]2COP(=O)(O)O[C@H]2[C@H]1O [8-Bromo-cAMP, sodium salt]	0.829 ± 1
CC(C)c1onc(-c2c(Cl)cccc2Cl)c1COc1ccc(/C=C/c2cccc(C(=O)O)c2)c(Cl)c1	-63.9 ± 13

A run of entries from further up, for reference:
Structure (SMILES)	robust z score of cilia incidence
CC(C)(CO)Cc1cc(C(C)(C)C)c(O)c(C(C)(C)C)c1	-1.98 ± 0.032
NC(N)=Nc1ccc(Cl)cc1 [4-Chlorophenylguanidine hydrochloride]	0.945 ± 1.2
